No constants are given. Whether binding was seen depends on the method and setting. Binding seen in cells or lysates may run through a third protein. Some entries that bind do so weakly or less than the wild type. For some assays here: Tags and fused reporters may be left off the sequences shown.

Chains of the proteins cited; added tags and fusions are not shown.
UniProt P25490: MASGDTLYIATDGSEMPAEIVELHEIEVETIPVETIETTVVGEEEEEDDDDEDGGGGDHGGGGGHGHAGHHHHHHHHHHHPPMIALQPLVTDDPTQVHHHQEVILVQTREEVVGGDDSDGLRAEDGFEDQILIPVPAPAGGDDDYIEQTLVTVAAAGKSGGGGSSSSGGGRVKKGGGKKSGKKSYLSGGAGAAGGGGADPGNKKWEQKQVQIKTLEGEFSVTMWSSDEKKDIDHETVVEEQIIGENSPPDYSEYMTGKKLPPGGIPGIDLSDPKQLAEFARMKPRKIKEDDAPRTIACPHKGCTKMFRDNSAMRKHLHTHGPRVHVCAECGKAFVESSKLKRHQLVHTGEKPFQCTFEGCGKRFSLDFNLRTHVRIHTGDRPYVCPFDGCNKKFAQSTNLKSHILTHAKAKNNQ

The target of experiment [1] is T1, FBL-TAD protein (transactivation domain of FBL) (UniProt P22087).
T1 sequence: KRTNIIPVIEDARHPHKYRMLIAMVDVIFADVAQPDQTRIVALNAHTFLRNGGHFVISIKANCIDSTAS
Description: pull-down; FBL-TAD protein as bait, endogenous YY1 of Huh-1 and HCCLM3 cells.

Experiment [2] addresses T1, FBL-TAD protein (transactivation domain of FBL). The experiment in a line: co-IP; IP of FBL-TAD proteins and YY1 in Huh-1 cells treated with different concentrations of fludarabine phosphate.
The next experiment addresses T2, His-tagged FBL (UniProt P22087).
T2 sequence: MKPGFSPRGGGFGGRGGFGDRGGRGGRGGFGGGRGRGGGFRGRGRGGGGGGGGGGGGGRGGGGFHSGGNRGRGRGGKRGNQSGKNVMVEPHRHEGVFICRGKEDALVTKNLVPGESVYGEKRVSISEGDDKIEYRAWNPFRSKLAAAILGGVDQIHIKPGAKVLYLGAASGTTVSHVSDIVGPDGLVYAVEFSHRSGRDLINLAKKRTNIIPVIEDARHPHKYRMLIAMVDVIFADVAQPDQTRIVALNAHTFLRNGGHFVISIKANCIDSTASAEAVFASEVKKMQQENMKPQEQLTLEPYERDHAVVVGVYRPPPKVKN
The experiment in a line: co-IP; His-tagged FBL and flag-tagged YY1 plasmids transiently transfected into HEK293T cells; immunoprecipitation with anti-His antibody, Western blot for flag-YY1 (the legend calls it an in vitro pull-down assay). In general terms: A western blot detects proteins with antibodies after separation by electrophoresis.

Another experiment concerns the target flag-tagged YY1 (UniProt P25490). The experiment is described as above.
Experiment [3] deals with endogenous YY1 (human (endogenous in Huh-1 and HCCLM3)) (UniProt P25490). The experiment in a line: co-IP; endogenous proteins in HCCLM3 cells, with anti-FBL or anti-YY1 antibodies.

Turning to “endogenous YY1 (from UniProt P25490 1-414)”, the binding entry in experiment [1] and in experiment [2] was “binds” each time.

On to “flag-tagged YY1 (from UniProt P25490 1-414)”, for which the binding result with His-tagged FBL is listed as “binds”.

B1: His-tagged FBL (protein, UniProt P22087 1-321)
chain: T2 sequence
In the case of B1, the binding result with flag-tagged YY1 is reported as “binds”.

B2: endogenous FBL (protein, UniProt P22087 1-321)
chain: T2 sequence
Turning to B2, in experiment [3], the binding entry is “binds”.

The values are drawn from paper PMC12034760, “FBL promotes hepatocellular carcinoma tumorigenesis and progression by recruiting YY1 to enhance CAD gene expression” (Cell Death & Disease, 2025).
